C=C1CCCC2(C)C=C3OC(=O)C(C)=C3CC12 (stereo not drawn) [ATT-I, atractylenolide I]
CD8+ T cell cytotoxicity upon treatment of CD8+ T cells only (MC38-OVA cells): did not have notable effect
toxicity in vivo (at the tested doses): no notable toxicity
systemic toxicity (body weights and pathological analysis of major organs) (versus control vehicle group): negligible systemic toxicity

From patent publication US12691093B2 (THE TRUSTEES OF INDIANA UNIVERSITY, priority 2020, dated 2026)
